Here are results for 1 substance from patent US20230406900 (published 2023).

This data set can be described thus: general procedure: Fmoc solid-phase peptide synthesis; Fmoc-Gly-Wang Resin; DIC + HOBt·H2O or Ethyl (hydroxyimino)cyanoacetate; HATU or DEPBT + DIPEA. To be noted: whole synthesis.

“And” between values parts separate entries of the source, which are not always exact repeats. Equal entries are not always repeated.

Consider semaglutide, for which, where the note is “estimated total recovery, run 1”, the isolated yield is 16.9% and 17.3% and 22.0% and 24.7%. Besides, the crude mass (scale 31.8 mmol) is reported as 14.229 g. Also, the “crude purity (method not given)” value (run 1) is 34.85% and 34.51% and 35.8% and 29.4%; the “crude purity (method not given)” value (run 2) is 60.35% and 52.17% and 57.13%.
